According to patent US8940271B2, “Transmucosal administration of drug compositions for treating and preventing disorders in animals” (Abbott Laboratories, priority 2005, dated 2015):

What was measured:
[1] = feline, ~1 mg/kg
[2] = tested on: cutaneous wheal and flare reaction caused by the release of histamine from mast cells; conditions: atopic dogs, TMOM 0.125, 0.5 and 1.0 mg/kg, for up to 24 hours
[3] = dogs, 13 mg/mL clemastine fumarate, 0.25 to 1 mg/kg
[4] = Clemastine two-way crossover, tablets vs TMOM, canine; conditions: ~1 mg/kg

Tmax, transmucosal oral vs conventional oral administration [1]: shorter
plasma concentrations with increasing TMOM dose volume (increased number of sprays) [3]: increasing plasma concentrations
relative bioavailability (AUC), transmucosal oral vs tablet [4]: significantly better
SMILES: CN1CCC[C@@H]1CCO[C@](C)(c1ccccc1)c1ccc(Cl)cc1 [clemastine]
inhibition of cutaneous wheal and flare reaction [2]: 40-70%
